From patent US20260097045A1, “ANTIMICROBIAL COMBINATIONS” (Helperby Therapeutics Limited, priority 2022, published 2026)
Some entries share one result that the patent states for a list of compounds. Residues, ends and D or L forms follow the SMILES beside them.

Legend:
P. aeruginosa = assay: chequerboard assay (percentage of positive control, MIC, FIC) against P. aeruginosa; assay type: cell-based; conditions: agent alone
From the text: (§1) FICI or fractional inhibitory concentration index is the sum of the FICs of each antimicrobial when used in combination. The FIC or fractional inhibitory concentration of an antimicrobial in a combination, is the MIC of the antimicrobial in the combination divided by the MIC of the same antimicrobial when used alone. Minimum inhibitory concentrations are defined in the art as the lowest concentration of an antimicrobial that will inhibit the visible growth of a microorganism after overnight incubation.
In the method for a 3-mer combination, one antibiotic was “fixed” as part of a backbone whilst the two other antibiotics were varied over a doubling concentration scale beginning at the MIC (×1) for the effective dose in monotherapy against the organism being tested. The ΣFIC was then calculated as shown below. In the method for a 4-mer combination, two antibiotics were “fixed” as part of a backbone whilst the two other antibiotics were varied over a doubling concentration scale beginning at the MIC (×1) for the effective dose in monotherapy against the organism being tested.
The ΣFIC was divided by “0.5/n” where n=number of antimicrobials in the combination to provide FIC. The inventors opted for this expression because it more closely aligns with the 2-mer synergy levels. The same FIC scale as used for 2-mers was applied: synergy is observed when FIC is <0.5. An “Additive” effect is observed when FIC is 0.5 to <1. Indifference is observed when FIC is 1 to <2. Antagonism is observed when FIC is 2 to 4.
The antimicrobial agents were sourced from commercially available sources. They were prepared by being weighed and dissolved in water, PBS, DMSO or acidified water to a final concentration from 1-10 mg/mL. […]
(§2) The bacteria were obtained from Ninewells Hospital and Medical School in Dundee, Scotland. […] The bacteria were measured for OD600 and readings of <0.25 were returned to the incubator. […]
(§3) Plates were read at OD600 in a 96-well plate reader. […]

A. baumannii = assay: chequerboard assay (percentage of positive control, MIC, FIC) against A. baumannii; assay type: cell-based; conditions: agent alone
From the text: as §1
In the method for a 3-mer combination, one antibiotic was “fixed” as part of a backbone whilst the two other antibiotics were varied over a doubling concentration scale beginning at the MIC (×1) for the effective dose in monotherapy against the organism being tested. The ΣFIC was then calculated as shown below. In the method for a 4-mer combination, two antibiotics were “fixed” as part of a backbone whilst the two other antibiotics were varied over a doubling concentration scale beginning at the MIC (×1) for the effective dose in monotherapy against the organism being tested. […]
as §2, §3

Compound	concentration up to which the isolate was resistant to the agent (P. aeruginosa)	concentration up to which the isolate was resistant to the agent (A. baumannii)
Cc1cn([C@H]2C[C@H](N=[N+]=[N-])[C@@H](CO)O2)c(=O)[nH]c1=O [Zidovudine, 1-[(2R, 4S, 5S)-4-Azido-5-(hydroxymethyl)oxolan-2-yl]-5-methylpyrimidine-2,4-dione]	at least 512 mg/L	at least 512 mg/L
CC(C)(O/N=C(\C(=O)N[C@@H]1C(=O)N2C(C(=O)[O-])=C(C[n+]3ccccc3)CS[C@H]12)c1csc(N)n1)C(=O)O [Ceftazidime]	at least 512 mg/L	at least 512 mg/L
CCC(C)CCCC(=O)N[C@@H](CCN)C(=O)N[C@H](C(=O)N[C@@H](CCN)C(=O)N[C@H]1CCNC(=O)[C@H]([C@@H](C)O)NC(=O)[C@H](CCN)NC(=O)[C@H](CCN)NC(=O)[C@H](CC(C)C)NC(=O)[C@@H](CC(C)C)NC(=O)[C@H](CCN)NC1=O)[C@@H](C)O (stereo partly drawn) (HELM PEPTIDE1{[CCC(C)CCCC(=O)[*:2]].[Dab].T.[Dab].[Dab].[Dab].[dL].L.[Dab].[Dab].T}$PEPTIDE1,PEPTIDE1,5:R3-11:R2$$$V2.0)	at least 512 mg/L	
